Assay [1] deals with purified human Gal-3 (Biolegend) (human) (UniProt P17931). As to the kind of experiment: cell-free binding assay (coated plate, antibody detection by fluorescence); as a4, with MCP (modified citrus pectin, Gal-3 inhibitor) combined with RAB10 and added to Gal-3-coated wells; MCP concentration not stated for this assay; both purified.
Assay [2] concerns the target RAB10 (human (endogenous in Ge518 and Ge269)) (UniProt P61026). The assay is described as follows: co-IP; immunoprecipitation of RAB10 from Ge518 shCtrl vs. shGal-3 lysate, immunoblot for Gal-3; also Ge518 treated with MCP (significant decrease of co-precipitated Gal-3). (In general: A western blot detects proteins with antibodies after separation by electrophoresis.)
In assay [3] the target is Galectin-3 (human (endogenous in Ge518 and Ge269)) (UniProt P17931). The assay is described as follows: co-IP; β1 integrin and Gal-3 co-immunoprecipitation from GSCs (Supplementary Fig. 7A); which protein was precipitated is not given.

The chains behind the UniProt entries cited, without tags or fusion partners. Where a name states a change or a piece, a line headed by the entry shows the natural chain unless it says otherwise.
UniProt P61026: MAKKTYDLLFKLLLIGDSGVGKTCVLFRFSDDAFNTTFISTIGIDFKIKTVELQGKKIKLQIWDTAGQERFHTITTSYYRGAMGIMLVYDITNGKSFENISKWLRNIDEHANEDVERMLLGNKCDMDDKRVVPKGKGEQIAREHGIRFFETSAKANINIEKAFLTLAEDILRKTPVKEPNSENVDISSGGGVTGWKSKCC
UniProt P05556: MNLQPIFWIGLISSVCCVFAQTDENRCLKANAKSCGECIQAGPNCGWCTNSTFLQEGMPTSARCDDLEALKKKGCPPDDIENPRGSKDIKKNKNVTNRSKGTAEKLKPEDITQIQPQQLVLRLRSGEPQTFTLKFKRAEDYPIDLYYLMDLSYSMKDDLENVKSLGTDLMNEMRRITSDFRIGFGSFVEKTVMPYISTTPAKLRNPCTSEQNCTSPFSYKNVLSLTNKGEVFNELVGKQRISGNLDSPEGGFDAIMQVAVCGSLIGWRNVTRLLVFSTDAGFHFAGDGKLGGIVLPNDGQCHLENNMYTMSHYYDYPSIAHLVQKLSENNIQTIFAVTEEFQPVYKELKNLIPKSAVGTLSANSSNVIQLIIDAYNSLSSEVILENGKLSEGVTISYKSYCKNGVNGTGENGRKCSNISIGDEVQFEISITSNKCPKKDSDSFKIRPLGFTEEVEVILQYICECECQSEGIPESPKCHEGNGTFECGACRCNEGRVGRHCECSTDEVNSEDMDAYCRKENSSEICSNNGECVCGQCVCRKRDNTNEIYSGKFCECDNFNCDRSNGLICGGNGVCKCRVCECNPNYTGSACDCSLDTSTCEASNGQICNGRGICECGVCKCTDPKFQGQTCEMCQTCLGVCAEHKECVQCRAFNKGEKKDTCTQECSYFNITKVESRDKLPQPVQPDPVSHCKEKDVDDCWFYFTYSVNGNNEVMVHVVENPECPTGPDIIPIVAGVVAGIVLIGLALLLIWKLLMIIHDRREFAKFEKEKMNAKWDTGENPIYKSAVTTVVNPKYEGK

These are yes or no findings as the source states them, for the method shown. For part of these data: Binding seen in cells or lysates may run through a third protein. Some binding calls cover weakened binding; strength is not graded here.

“recombinant human RAB10 (Prospec PRO-1361) (from UniProt P61026 1-200)”: in assay [1], the binding entry was “no binding (condition: with MCP)”. On to Galectin-3 (from UniProt P17931 1-250), for which the binding entry in assay [2] is “binds”. On to “β1 integrin (from UniProt P05556 21-798) (receptor)”, for which the binding result in assay [3] was “binds”.
